Data as given in PubChem BioAssay AID686938 (Drosophila RNAi Screening Center, 2013)
In all, the deposit lists about 23,000 reagents; shown is a random part of those that have a named target and a result. Of all reagents, 75 (0.33%) got an active call. 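Raw plate signals without normalisation; calls rest on plate z-scores that were not deposited; ratio present for only 364 wells.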 A number with no mark means an inactive call. Reagents against one gene are numbered here. Not stated in the record: the dose of the treatment.

Purpose: 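Looking for CRAC channel components and the factors controlling them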 (primary screen)
Cells: Drosophila S2R+ cells
Reagent: long dsRNA against Drosophila genes, about 0.25 µg dsRNA per well, roughly 10,000 cells
Time to read-out: 5 days of knock-down before the calcium assay
Challenge: thapsigargin (SERCA pump blocker) to empty calcium stores; entry signal taken 4 min after adding it
Measured: 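Per-well fluo-4 fluorescence in two replicates, unnormalised, measured in resting cells and 4 min after store depletion by the SERCA blocker thapsigargin; ratio of the two present in few wells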
Scale: calcium entry signal: higher = stronger calcium signal after store depletion; entry to resting ratio: higher = more calcium entry relative to resting level; resting calcium signal: higher = higher resting calcium signal
Active means: 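Called when the plate z-score of the entry-to-rest ratio, mean of duplicates, falls below −3; wells with low overall dye signal (Fmax z below −2) or more than five off-targets excluded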
Calls: active = strongly reduced calcium entry; inactive = no strong reduction

| gene | reagent no. | calcium entry signal, replicate 1 (fluorescence units) | calcium entry signal, replicate 2 (fluorescence units) | entry to resting ratio | resting calcium signal, replicate 1 (fluorescence units) | resting calcium signal, replicate 2 (fluorescence units) |
| --- | --- | --- | --- | --- | --- | --- |
| Arglu1 | 1 | 4.05e7 | 5.21e7 | – | 1.70e7 | 2.01e7 |
| CHOp24 | 1 | 3.43e7 | 3.10e7 | – | 1.74e7 | 1.71e7 |
| Ir87a | 1 | 3.25e7 | 6.57e7 | – | 1.68e7 | 6.91e7 |
| CG30411 | 1 | 2.18e7 | 3.26e7 | – | 1.12e7 | 1.44e7 |
| CG6154 | 1 | 3.10e7 | 6.29e7 | – | 1.85e7 | 2.68e7 |
| Hex-t1 | 1 | 3.84e7 | 4.52e7 | – | 2.05e7 | 2.12e7 |
| Pp1-87B | 1 | 2.29e7 | 3.13e7 | – | 1.41e7 | 1.75e7 |
| Pp1-87B | 2 | 3.57e7 | 3.72e7 | – | 1.78e7 | 1.62e7 |
| CG12170 | 1 | 3.51e7 | 5.11e7 | – | 1.57e7 | 2.29e7 |
| Rab11 | 1 | 3.79e7 | 4.40e7 | – | 7.06e7 | 2.06e7 |
| Or13a | 1 | 4.56e7 | 2.82e7 | – | 2.31e7 | 1.35e7 |
| CG8545 | 1 | 2.34e7 | 3.23e7 | – | 1.26e7 | 1.64e7 |
| Acp24A4 | 1 | 3.67e7 | 6.67e7 | – | 1.70e7 | 3.23e7 |
| CG14572 | 1 | 3.39e7 | 6.01e7 | – | 1.56e7 | 2.38e7 |
| CG32249 | 1 | 5.25e7 | 3.35e7 | – | 2.79e7 | 1.58e7 |
| CG32249 | 2 | 2.32e7 | 4.13e7 | – | 1.22e7 | 1.74e7 |
| CG32249 | 3 | 4.58e7 | 3.78e7 | – | 2.16e7 | 1.72e7 |
| CG8248 | 1 | 4.66e7 | 4.22e7 | – | 2.02e7 | 1.92e7 |
| Atf3 | 1 | 4.23e7 | 5.54e7 | 1.9 | 2.26e7 | 2.44e7 |
| Atf3 | 2 | 5.95e7 | 3.98e7 | – | 2.76e7 | 1.70e7 |
| sofe | 1 | 2.20e7 | 3.31e7 | – | 1.14e7 | 1.64e7 |
| Acsx4 | 1 | 4.20e7 | 3.89e7 | – | 5.50e7 | 1.96e7 |
| Mkrn1 | 1 | 2.68e7 | 1.54e7 | – | 1.31e7 | 8.42e6 |
| uri | 1 | 3.47e7 | – | – | 1.90e7 | – |
| CG7290 | 1 | 2.01e7 | 3.36e7 | – | 1.08e7 | 1.50e7 |
| CG7135 | 1 | 3.76e7 | 3.16e7 | – | 1.99e7 | 1.33e7 |
| Semp1 | 1 | 4.40e7 | 2.88e7 | – | 1.91e7 | 1.42e7 |
| mRpL47 | 1 | 4.38e7 | 3.03e7 | – | 2.01e7 | 1.64e7 |

Part of the list above, reformatted:
gene | reagent no. | calcium entry signal, replicate 1 (fluorescence units) | calcium entry signal, replicate 2 (fluorescence units) | entry to resting ratio | resting calcium signal, replicate 1 (fluorescence units) | resting calcium signal, replicate 2 (fluorescence units)
Atf3 | 1 | 4.23e7 | 5.54e7 | 1.9 | 2.26e7 | 2.44e7
Atf3 | 2 | 5.95e7 | 3.98e7 | – | 2.76e7 | 1.70e7
sofe | 1 | 2.20e7 | 3.31e7 | – | 1.14e7 | 1.64e7
Acsx4 | 1 | 4.20e7 | 3.89e7 | – | 5.50e7 | 1.96e7
Mkrn1 | 1 | 2.68e7 | 1.54e7 | – | 1.31e7 | 8.42e6

The list goes on.
| gene | reagent no. | calcium entry signal, replicate 1 (fluorescence units) | calcium entry signal, replicate 2 (fluorescence units) | entry to resting ratio | resting calcium signal, replicate 1 (fluorescence units) | resting calcium signal, replicate 2 (fluorescence units) |
| --- | --- | --- | --- | --- | --- | --- |
| bdg | 1 | 2.90e7 | 2.36e7 | – | 1.29e7 | 1.52e7 |
| CG12024 | 1 | 3.83e7 | 2.93e7 | – | 1.69e7 | 1.56e7 |
| CG31464 | 1 | 4.62e7 | 3.66e7 | – | 2.06e7 | 1.74e7 |
| CG3927 | 1 | 3.43e7 | 3.48e7 | – | 1.82e7 | 1.48e7 |
| CG3927 | 2 | 3.27e7 | 3.73e7 | – | 1.62e7 | 2.07e7 |
| CG10657 | 1 | 4.51e7 | 5.20e7 | – | 3.05e7 | 2.56e7 |
| GlcT | 1 | 3.61e7 | – | – | 1.83e7 | – |
| PolI | 1 | 5.30e7 | 3.41e7 | – | 2.60e7 | 1.70e7 |
| pkm | 1 | 3.23e7 | 4.18e7 | – | 1.68e7 | 2.00e7 |
| Hakai | 1 | 5.29e7 | – | – | 2.53e7 | – |
| Drep1 | 1 | 3.29e7 | 3.82e7 | – | 1.73e7 | 1.68e7 |
| JMJD4 | 1 | 4.01e7 | – | – | 1.97e7 | – |
| Reg-5 | 1 | 4.50e7 | – | – | 2.15e7 | – |
| eIF4G2 | 1 | 3.94e7 | 3.22e7 | – | 1.96e7 | 1.51e7 |
| eIF4G2 | 2 | 2.31e7 | 3.64e7 | – | 1.25e7 | 1.79e7 |
| CG13033 | 1 | 4.72e7 | 6.55e7 | – | 2.18e7 | 2.55e7 |
| CG43111 | 1 | 2.25e7 | 4.60e7 | – | 1.06e7 | 2.00e7 |
| CG33272 | 1 | 3.89e7 | 3.20e7 | – | 2.02e7 | 1.72e7 |
| escl | 1 | 4.44e7 | – | – | 1.95e7 | – |
| Snx17 | 1 | 5.06e7 | – | – | 2.53e7 | – |
| CG8635 | 1 | 4.21e7 | 3.66e7 | – | 1.84e7 | 1.83e7 |
| senju | 1 | 3.63e7 | 3.98e7 | – | 1.79e7 | 1.87e7 |
| CG12643 | 1 | 4.05e7 | 3.84e7 | – | 1.83e7 | 1.72e7 |
| Lztr1 | 1 | 3.77e7 | 5.50e7 | 2 | 1.90e7 | 2.03e7 |
| Lztr1 | 2 | 3.54e7 | 6.35e7 | 2.1 | 1.70e7 | 2.20e7 |
| CG13036 (retired record) | 1 | 5.15e7 | 7.97e7 | – | 2.38e7 | 2.78e7 |
| CG3085 | 1 | 3.54e7 | – | – | 1.70e7 | – |
| CG1888 | 1 | 3.80e7 | 4.13e7 | – | 1.78e7 | 1.85e7 |
| Bug22 | 1 | 3.68e7 | 5.66e7 | – | 1.65e7 | 1.95e7 |
| CG11409 | 1 | 4.04e7 | 4.20e7 | – | 1.94e7 | 1.99e7 |
